US6803466B1, “HIV/FIV protease inhibitors having a small P3 residue” (The Scripps Research Institute, priority 1997, dated 2004)
Some of these results come from one statement about several compounds together.

Tested on: mutant FIV PRs (FIV(V59I), FIV(Q99V))
Assay: Inhibition of mutant FIV PRs
Type: biochemical, feline immunodeficiency virus
Details: versus wild type FIV PR
Description: The inhibitory effects of each inhibitor were evaluated against HIV and FIV PRs along with two mutant FIV PRs that contain amino acid substitutions corresponding to those in HIV PR at homologous sites.
For FIV PRs, the kinetic data were determined under the similar reaction conditions as for HIV PR.
Mutant FIV PRs were prepared that contained substitutions of HIV residues noted to be associated with drug resistance in HIV (16) at equivalent sites in the three dimensional structure.

CC(C)[C@H](NC(=O)[C@H](C)NC(=O)OCc1ccccc1)C(=O)N[C@@H](Cc1ccccc1)[C@@H](O)[C@H](O)[C@H](Cc1ccccc1)NC(=O)[C@@H](NC(=O)[C@H](C)NC(=O)OCc1ccccc1)C(C)C [Compound 1b]
efficacy of inhibition increased in mutant FIV PRs: up to 5 fold
